Laboratory results reported in patent publication US20170051280A1.
No constants are given. Whether binding was seen depends on the method and setting. In cells and extracts the contact can be indirect. Some entries that bind do so weakly or less than the wild type.

Target: T1, p22phox in mouse retina (p47phox-/- and wild type mice, p17 OIR) (mouse) (UniProt Q61462)
T1 sequence (looked up): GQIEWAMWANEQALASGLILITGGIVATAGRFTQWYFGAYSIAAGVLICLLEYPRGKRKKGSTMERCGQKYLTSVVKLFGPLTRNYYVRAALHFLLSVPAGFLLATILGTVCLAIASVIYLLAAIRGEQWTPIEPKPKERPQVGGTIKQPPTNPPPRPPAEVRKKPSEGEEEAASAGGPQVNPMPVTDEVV
Assay: co-immunoprecipitation from mouse retina (p47phox-/- vs WT, p17 OIR), figure legend FIG. 10A

- binding: binds
B1: NOX4 in mouse retina (p47phox-/- and wild type mice, p17 OIR) (enzyme, UniProt Q9JHI8 1-578, looked up)
chain: MAVSWRSWLANEGVKHLCLLIWLSLNVLLFWKTFLLYNQGPEYYYIHQMLGLGLCLSRASASVLNLNCSLILLPMCRTVLAYLRGSQKVPSRRTRRLLDKSKTLHITCGVTICIFSGVHVAAHLVNALNFSVNYSEDFLELNAARYQNEDPRKLLFTTIPGLTGVCMVVVLFLMVTASTYAIRVSNYDIFWYTHNLFFVFYMLLLLHVSGGLLKYQTNVDTHPPGCISLNQTSSQNMSIPDYVSEHFHGSLPRGFSKLEDRYQKTLVKICLEEPKFQAHFPQTWIWISGPLCLYCAERLYRCIRSNKPVTIISVINHPSDVMELRMIKENFKARPGQYIILHCPSVSALENHPFTLTMCPTETKATFGVHFKVVGDWTERFRDLLLPPSSQDSEILPFIHSRNYPKLYIDGPFGSPFEESLNYEVSLCVAGGIGVTPFASILNTLLDDWKPYKLRRLYFIWVCRDIQSFQWFADLLCVLHNKFWQENRPDFVNIQLYLSQTDGIQKIIGEKYHTLNSRLFIGRPRWKLLFDEIAKCNRGKTVGVFCCGPSSISKTLHSLSNRNNSYGTKFEYNKESFS
